Reference: PubChem BioAssay AID1159584 (Peter MacCallum Cancer Centre, 2016)
Aim: 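Genes that CDH1-null MCF10A cells selectively depend on to survive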 (primary screen). Cells: human MCF10A breast epithelial cells, parental and CDH1-null. Reagent: siRNA against human genes. Detection: 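ATP luminescence (CellTiter-Glo) viability per line relative to mean mock wells over all plates, and the ratio of CDH1-null to parental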. Scale: CDH1-null / parental viability ratio: higher = CDH1-null cells survive relatively better than parental; CDH1-null viability vs mock: higher = more viable CDH1-null cells; parental viability vs mock: higher = more viable parental cells.
In all, the deposit lists about 18,000 reagents; shown is a part drawn at random. The record does not give: the amount of reagent, the time to read-out.

CDH1-null / parental viability ratio | CDH1-null viability vs mock (fraction of mock) | parental viability vs mock (fraction of mock) | target gene
1.01 | 0.77 | 0.76 | TRAPPC2 (GeneID 6399)
0.84 | 0.62 | 0.74 | TRHR (GeneID 7201)
1.21 | 1.02 | 0.84 | ZNF26 (GeneID 7574)
1.05 | 0.92 | 0.88 | HMX2 (GeneID 3167)
1.27 | 0.79 | 0.62 | KLK10 (GeneID 5655)
0.9 | 0.69 | 0.77 | GFRAL (GeneID 389400)
0.8 | 0.48 | 0.6 | RCOR3 (GeneID 55758)
0.99 | 0.83 | 0.84 | KLHL35 (GeneID 283212)
1.15 | 0.93 | 0.81 | GLO1 (GeneID 2739)
1.23 | 1.23 | 1 | UNC93A (GeneID 54346)
1.09 | 0.74 | 0.68 | XPO7 (GeneID 23039)
1.08 | 0.8 | 0.74 | MFSD6L (GeneID 162387)
0.83 | 0.3 | 0.36 | CSDC2 (GeneID 27254)
0.95 | 0.84 | 0.88 | BMPR1B (GeneID 658)
1.15 | 0.9 | 0.78 | TAFA5 (GeneID 25817)
1.13 | 1.18 | 1.04 | KRT222 (GeneID 125113)
1.07 | 0.88 | 0.82 | PLAC4 (GeneID 191585)
1.09 | 0.63 | 0.58 | CTLA4 (GeneID 1493)
1.02 | 0.92 | 0.9 | OCA2 (GeneID 4948)
1.21 | 0.46 | 0.38 | BNIP3 (GeneID 664)
0.94 | 0.76 | 0.81 | YES1 (GeneID 7525)
1.5 | 1.08 | 0.72 | CRADD (GeneID 8738)
1.02 | 0.86 | 0.84 | POTEA (GeneID 340441)
1.08 | 0.13 | 0.12 | SF3B1 (GeneID 23451)
0.89 | 0.68 | 0.76 | OR9G9 (GeneID 504191)
0.82 | 0.62 | 0.76 | BTLA (GeneID 151888)
1 | 0.78 | 0.78 | P4HA1 (GeneID 5033)
0.83 | 0.88 | 1.06 | NOMO1 (GeneID 23420)
0.73 | 0.73 | 1 | ADGRG7 (GeneID 84873)
0.88 | 0.64 | 0.73 | PRIM1 (GeneID 5557)
0.74 | 0.34 | 0.46 | RTF1 (GeneID 23168)
1.1 | 0.86 | 0.78 | MRPL53 (GeneID 116540)
1.06 | 0.56 | 0.53 | MAML3 (GeneID 55534)
0.79 | 0.89 | 1.12 | SNX13 (GeneID 23161)
1.02 | 0.84 | 0.82 | IER5 (GeneID 51278)
1.17 | 0.76 | 0.65 | BLOC1S6 (GeneID 26258)
0.92 | 0.44 | 0.48 | PHF14 (GeneID 9678)
1.02 | 0.98 | 0.96 | LEP (GeneID 3952)
0.95 | 0.61 | 0.64 | SMTN (GeneID 6525)
1 | 0.55 | 0.55 | KTN1 (GeneID 3895)
1.08 | 0.95 | 0.88 | LIG1 (GeneID 3978)
0.91 | 0.6 | 0.66 | GTF2A1 (GeneID 2957)
1.32 | 0.9 | 0.68 | SUMO3 (GeneID 6612)
1.1 | 0.96 | 0.87 | C6orf47 (GeneID 57827)

The list goes on, starting with the last 4 of the part before.
CDH1-null / parental viability ratio | CDH1-null viability vs mock (fraction of mock) | parental viability vs mock (fraction of mock) | target gene
1.08 | 0.95 | 0.88 | LIG1 (GeneID 3978)
0.91 | 0.6 | 0.66 | GTF2A1 (GeneID 2957)
1.32 | 0.9 | 0.68 | SUMO3 (GeneID 6612)
1.1 | 0.96 | 0.87 | C6orf47 (GeneID 57827)
1.21 | 0.93 | 0.77 | CRX (GeneID 1406)
0.75 | 0.62 | 0.83 | ZNF185 (GeneID 7739)
1.25 | 0.8 | 0.64 | FRRS1 (GeneID 391059)
1.29 | 0.88 | 0.68 | OR13H1 (GeneID 347468)
1.21 | 0.34 | 0.28 | CDC26 (GeneID 246184)
0.95 | 0.96 | 1.01 | OR7C1 (GeneID 26664)
1.24 | 0.56 | 0.45 | PNMA8B (GeneID 57469)
0.92 | 0.94 | 1.02 | ZDHHC21 (GeneID 340481)
0.86 | 0.72 | 0.84 | ABCA13 (GeneID 154664)
1.26 | 0.88 | 0.7 | YBX1 (GeneID 4904)
1.35 | 0.97 | 0.72 | THOC1 (GeneID 9984)
0.9 | 0.88 | 0.98 | APOC3 (GeneID 345)
0.76 | 0.75 | 0.99 | HCAR1 (GeneID 27198)
1.14 | 0.89 | 0.78 | E2F1 (GeneID 1869)
1.03 | 0.8 | 0.78 | KRT3 (GeneID 3850)
0.89 | 0.8 | 0.9 | NKX2-1 (GeneID 7080)
0.85 | 0.4 | 0.47 | PNOC (GeneID 5368)
0.7 | 0.35 | 0.5 | ARGFX (GeneID 503582)
1.09 | 0.87 | 0.8 | SPSB1 (GeneID 80176)
0.9 | 0.66 | 0.73 | CARD9 (GeneID 64170)
0.83 | 0.44 | 0.53 | NHLRC1 (GeneID 378884)
1.39 | 0.75 | 0.54 | HOMER3 (GeneID 9454)
1.46 | 0.98 | 0.67 | SSTR3 (GeneID 6753)
0.77 | 0.54 | 0.7 | MRPL40 (GeneID 64976)
